Measured values as given in paper PMC5418573.

Experiments:
Assay in all cases: fluorescence anisotropy
[1] = tested on: PolB1 (Dpo1) + PBP1 + PBP2; conditions: pH 8; 10 mM Tris pH 8 or pH 6, 100 mM NaCl, 10 nM 6-FAM primer-template, polymerase 0.78-200 nM, 50 °C 10 min (PBP2 alone: 1x TBS); recombinant protein; label: 6-FAM 5' on strand 1
[2] = target: T1, PolB1 (Dpo1) (Sulfolobus solfataricus) (UniProt P26811); conditions: pH 8; 10 mM Tris pH 8 or pH 6, 100 mM NaCl, 10 nM 6-FAM primer-template, polymerase 0.78-200 nM, 50 °C 10 min (PBP2 alone: 1x TBS); recombinant protein; label: 6-FAM 5' on strand 1
T1 sequence (looked up, limits assumed): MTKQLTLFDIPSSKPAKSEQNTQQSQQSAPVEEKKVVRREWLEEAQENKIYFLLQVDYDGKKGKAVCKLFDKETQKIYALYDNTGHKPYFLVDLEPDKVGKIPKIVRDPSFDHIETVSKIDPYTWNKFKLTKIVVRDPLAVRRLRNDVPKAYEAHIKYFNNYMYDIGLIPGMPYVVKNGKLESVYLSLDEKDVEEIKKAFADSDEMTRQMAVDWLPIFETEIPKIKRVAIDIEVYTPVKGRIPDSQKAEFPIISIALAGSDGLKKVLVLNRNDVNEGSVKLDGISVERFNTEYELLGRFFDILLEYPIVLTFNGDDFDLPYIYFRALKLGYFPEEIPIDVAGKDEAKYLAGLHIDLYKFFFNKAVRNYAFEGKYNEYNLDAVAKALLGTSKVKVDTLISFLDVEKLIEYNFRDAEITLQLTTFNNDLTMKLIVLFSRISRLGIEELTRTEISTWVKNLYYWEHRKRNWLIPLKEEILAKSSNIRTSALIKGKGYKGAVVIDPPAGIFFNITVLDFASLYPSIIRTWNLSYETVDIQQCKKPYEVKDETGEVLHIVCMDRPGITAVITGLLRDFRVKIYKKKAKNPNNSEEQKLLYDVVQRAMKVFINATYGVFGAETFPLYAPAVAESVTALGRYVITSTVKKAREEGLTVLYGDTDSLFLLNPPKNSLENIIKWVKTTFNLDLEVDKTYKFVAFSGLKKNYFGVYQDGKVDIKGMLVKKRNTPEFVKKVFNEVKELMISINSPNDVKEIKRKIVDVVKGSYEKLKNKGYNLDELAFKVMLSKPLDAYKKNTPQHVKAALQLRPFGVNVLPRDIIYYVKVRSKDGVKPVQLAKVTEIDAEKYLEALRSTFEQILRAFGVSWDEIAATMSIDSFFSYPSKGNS

[3] = tested on: PolB1 (Dpo1) + PBP1ΔC + PBP2; conditions: pH 8, inhibition depends on the acidic tail; 10 mM Tris pH 8 or pH 6, 100 mM NaCl, 10 nM 6-FAM primer-template, polymerase 0.78-200 nM, 50 °C 10 min (PBP2 alone: 1x TBS); recombinant protein; label: 6-FAM 5' on strand 1

CAGGTGGGCTGCGGTCACGTTGTCAGAGGTC / GTGTAATGATGCCATGCGACCTCTGACAACGTGACCGCAGCCCACCTG [FA primer-template junction (FA_label/FA_template)]
binding result [1]: binds more weakly | binding result [2]: binds | binding result [3]: binds

The exact form of at least one protein or probe is not confirmed. For part of these data: The comparison behind a weaker result is the experiment's own reference, which may not be listed here. For part of these data: At least one verdict rests on a figure or table, not on a statement of the authors. For part of these data: Tags and fusion partners may be left off the protein sequences shown.
